# Assay results taken from the supplement of paper PMC8728848.
# The other results are listed elsewhere or left out.
# B1: LlpA (Burkholderia cenocepacia) (protein)
# chain: MGSSHHHHHHSSGLVPRGSHKILGSNETLSAGNVVYSDNGQYHLAMQTDGNLVVYGPTGAVWQSQTSGSGGNRAVMQGDGNLVIYRADNTAAWSSKTAHPGAFLAVQDDGNVVIYWPRPAWASNTSDPATQQSAESKYLASGSTMSAGQTVTVAQYMLVFQADGNLVLYKNGGNPIWSTGTQGKGATYAVMQSDGNFVIYAGSTALWSTKTNGANGAQLVLQSDGNLVIYAPTAAWSTKFGLVTAPTSTSTSNNGPGSGICVGVCPPHPLNGNPFSPVGVGTTGLGFPTPGYPGAAF
# Legend:
# Assay in all cases: glycan array binding signal (z-score within array); higher = stronger binding
# Conditions in all cases: glycan notation: IUPAC condensed, linker removed
# Gal(a1-3)Gal(b1-4)GlcNAc = biological target: Gal(a1-3)Gal(b1-4)GlcNAc
# Outline: (§1)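 Glycan array binding is given as a within-array Z-score, which can be read as non-binding when negative. The arrays, 3228 of them, came from the Consortium for Functional Glycomics database and were retained only where the protein sequence was available. Z-scores were averaged across arrays of the same protein sequence at different concentrations or buffers and across linkers.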
# [1] = biological target: Gal(a1-3)Gal(b1-4)GlcNAc(b1-2)Man
# Outline: as §1
# [2] = biological target: Gal(a1-3)Gal(b1-4)GlcNAc(b1-2)Man(a1-3)[Gal(a1-3)Gal(b1-4)GlcNAc(b1-2)Man(a1-6)]Man(b1-4)GlcNAc(b1-4)GlcNAc
# Outline: as §1
# [3] = biological target: Gal(a1-3)Gal(b1-4)GlcNAc(b1-3)GalNAc
# Outline: as §1
# [4] = biological target: Gal(a1-3)Gal(b1-4)GlcNAc(b1-6)GalNAc
# Outline: as §1
# [5] = biological target: Gal(a1-3)Gal(b1-4)[Fuc(a1-3)]GlcNAc
# Outline: as §1
# [6] = biological target: Gal(a1-3)Gal(b1-4)[Fuc(a1-3)]GlcNAc(b1-2)Man(a1-3)[Gal(a1-3)Gal(b1-4)[Fuc(a1-3)]GlcNAc(b1-2)Man(a1-6)]Man(b1-4)GlcNAc(b1-4)GlcNAc
# Outline: as §1
# Gal(a1-3)GalNAc = biological target: Gal(a1-3)GalNAc
# Outline: as §1
# [7] = biological target: Gal(a1-3)[Gal(a1-4)]Gal(b1-4)GlcNAc
# Outline: as §1
# [8] = biological target: Gal(a1-4)Gal(b1-3)GlcNAc(b1-2)Man(a1-3)[Gal(a1-4)Gal(b1-3)GlcNAc(b1-2)Man(a1-6)]Man(b1-4)GlcNAc(b1-4)GlcNAc
# Outline: as §1
# Gal(a1-4)Gal(b1-4)Glc = biological target: Gal(a1-4)Gal(b1-4)Glc
# Outline: as §1
# Gal(a1-4)Gal(b1-4)GlcNAc = biological target: Gal(a1-4)Gal(b1-4)GlcNAc
# Outline: as §1
# [9] = biological target: Gal(a1-4)Gal(b1-4)GlcNAc(b1-2)Man(a1-3)[Gal(a1-4)Gal(b1-4)GlcNAc(b1-2)Man(a1-6)]Man(b1-4)GlcNAc(b1-4)GlcNAc
# Outline: as §1
# [10] = biological target: Gal(a1-4)Gal(b1-4)GlcNAc(b1-3)Gal(b1-4)Glc
# Outline: as §1
# Gal(a1-4)GlcNAc = biological target: Gal(a1-4)GlcNAc
# Outline: as §1
# Gal(a1-6)Glc = biological target: Gal(a1-6)Glc
# Outline: as §1
# Gal(b1-2)Gal = biological target: Gal(b1-2)Gal
# Outline: as §1
# Gal(b1-3)Gal = biological target: Gal(b1-3)Gal
# Outline: as §1
# Gal(b1-3)Gal(b1-4)GlcNAc = biological target: Gal(b1-3)Gal(b1-4)GlcNAc
# Outline: as §1
# Gal(b1-3)GalNAc = biological target: Gal(b1-3)GalNAc
# Outline: as §1
# [11] = biological target: Gal(b1-3)GalNAc(a1-3)[Fuc(a1-2)]Gal(b1-4)Glc
# Outline: as §1
# [12] = biological target: Gal(b1-3)GalNAc(a1-3)[Fuc(a1-2)]Gal(b1-4)GlcNAc
# Outline: as §1
# Gal(b1-3)GalNAc(b1-3)Gal = biological target: Gal(b1-3)GalNAc(b1-3)Gal
# Outline: as §1
# [13] = biological target: Gal(b1-3)GalNAc(b1-3)Gal(a1-4)Gal(b1-4)Glc
# Outline: as §1
# [14] = biological target: Gal(b1-3)GalNAc(b1-4)Gal(b1-4)Glc
# Outline: as §1
# [15] = biological target: Gal(b1-3)GalNAc(b1-4)[Neu5Ac(a2-3)]Gal(b1-4)Glc
# Outline: as §1
# Gal(b1-3)GlcNAc = biological target: Gal(b1-3)GlcNAc
# Outline: as §1
# [16] = biological target: Gal(b1-3)GlcNAc(a1-3)Gal(b1-4)GlcNAc
# Outline: as §1
# [17] = biological target: Gal(b1-3)GlcNAc(a1-6)Gal(b1-4)GlcNAc
# Outline: as §1
# Gal(b1-3)GlcNAc(b1-2)Man = biological target: Gal(b1-3)GlcNAc(b1-2)Man
# Outline: as §1
# [18] = biological target: Gal(b1-3)GlcNAc(b1-2)Man(a1-3)[Gal(b1-3)GlcNAc(b1-2)Man(a1-6)]Man(b1-4)GlcNAc(b1-4)GlcNAc
# Outline: as §1
# [19] = biological target: Gal(b1-3)GlcNAc(b1-2)Man(a1-3)[Gal(b1-3)GlcNAc(b1-2)Man(a1-6)]Man(b1-4)GlcNAc(b1-4)[Fuc(a1-6)]GlcNAc
# Outline: as §1
# [20] = biological target: Gal(b1-3)GlcNAc(b1-2)Man(a1-3)[GlcNAc(b1-4)][Gal(b1-3)GlcNAc(b1-2)Man(a1-6)]Man(b1-4)GlcNAc(b1-4)GlcNAc
# Outline: as §1
# [21] = biological target: Gal(b1-3)GlcNAc(b1-2)[Gal(b1-3)GlcNAc(b1-6)]Man(a1-6)[Gal(b1-3)GlcNAc(b1-2)Man(a1-3)]Man(b1-4)GlcNAc(b1-4)GlcNAc
# Outline: as §1
# [22] = biological target: Gal(b1-3)GlcNAc(b1-3)Gal(b1-3)GlcNAc
# Outline: as §1
# [23] = biological target: Gal(b1-3)GlcNAc(b1-3)Gal(b1-4)Glc
# Outline: as §1
# [24] = biological target: Gal(b1-3)GlcNAc(b1-3)Gal(b1-4)GlcNAc
# Outline: as §1
# [25] = biological target: Gal(b1-3)GlcNAc(b1-3)Gal(b1-4)GlcNAc(b1-2)Man(a1-3)[Gal(b1-3)GlcNAc(b1-3)Gal(b1-4)GlcNAc(b1-2)Man(a1-6)]Man(b1-4)GlcNAc(b1-4)GlcNAc
# Outline: as §1
# [26] = biological target: Gal(b1-3)GlcNAc(b1-3)Gal(b1-4)GlcNAc(b1-2)[Gal(b1-3)GlcNAc(b1-3)Gal(b1-4)GlcNAc(b1-6)]Man(a1-6)[Gal(b1-3)GlcNAc(b1-3)Gal(b1-4)GlcNAc(b1-2)Man(a1-3)]Man(b1-4)GlcNAc(b1-4)[Fuc(a1-6)]GlcNAc
# Outline: as §1
# [27] = biological target: Gal(b1-3)GlcNAc(b1-3)Gal(b1-4)GlcNAc(b1-3)Gal(b1-4)GlcNAc(b1-2)[Gal(b1-3)GlcNAc(b1-3)Gal(b1-4)GlcNAc(b1-3)Gal(b1-4)GlcNAc(b1-6)]Man(a1-6)[Gal(b1-3)GlcNAc(b1-3)Gal(b1-4)GlcNAc(b1-3)Gal(b1-4)GlcNAc(b1-2)Man(a1-3)]Man(b1-4)GlcNAc(b1-4)[Fuc(a1-6)]GlcNAc
# Outline: as §1
# [28] = biological target: Gal(b1-3)GlcNAc(b1-3)Gal(b1-4)GlcNAc(b1-6)[Gal(b1-3)GlcNAc(b1-3)]Gal(b1-4)Glc
# Outline: as §1
# [29] = biological target: Gal(b1-3)GlcNAc(b1-3)Gal(b1-4)[Fuc(a1-3)]GlcNAc
# Outline: as §1
# [30] = biological target: Gal(b1-3)GlcNAc(b1-3)Gal(b1-4)[Fuc(a1-3)]GlcNAc(b1-6)[Gal(b1-3)GlcNAc(b1-3)]Gal(b1-4)Glc
# Outline: as §1
# [31] = biological target: Gal(b1-3)GlcNAc(b1-3)GalNAc
# Outline: as §1
# [32] = biological target: Gal(b1-3)GlcNAc(b1-6)Gal(b1-4)GlcNAc
# Outline: as §1
binder,measurement,setting,value
B1,glycan array binding signal (z-score),Gal(a1-3)Gal(b1-4)GlcNAc,0.127
same,glycan array binding signal (z-score),[1],-0.491
same,glycan array binding signal (z-score),[2],0.427
same,glycan array binding signal (z-score),[3],-0.196
same,glycan array binding signal (z-score),[4],0.692
same,glycan array binding signal (z-score),[5],0.698
same,glycan array binding signal (z-score),[6],-0.583
same,glycan array binding signal (z-score),Gal(a1-3)GalNAc,-0.618
same,glycan array binding signal (z-score),[7],0.304
same,glycan array binding signal (z-score),[8],1.58
same,glycan array binding signal (z-score),Gal(a1-4)Gal(b1-4)Glc,0.481
same,glycan array binding signal (z-score),Gal(a1-4)Gal(b1-4)GlcNAc,0.401
same,glycan array binding signal (z-score),[9],0.192
same,glycan array binding signal (z-score),[10],0.212
same,glycan array binding signal (z-score),Gal(a1-4)GlcNAc,-0.701
same,glycan array binding signal (z-score),Gal(a1-6)Glc,0.038
same,glycan array binding signal (z-score),Gal(b1-2)Gal,-0.134
same,glycan array binding signal (z-score),Gal(b1-3)Gal,1.25
same,glycan array binding signal (z-score),Gal(b1-3)Gal(b1-4)GlcNAc,-0.878
same,glycan array binding signal (z-score),Gal(b1-3)GalNAc,-0.365
same,glycan array binding signal (z-score),[11],1.11
same,glycan array binding signal (z-score),[12],-0.991
same,glycan array binding signal (z-score),Gal(b1-3)GalNAc(b1-3)Gal,1.1
same,glycan array binding signal (z-score),[13],0.971
same,glycan array binding signal (z-score),[14],0.27
same,glycan array binding signal (z-score),[15],0.475
same,glycan array binding signal (z-score),Gal(b1-3)GlcNAc,-0.647
same,glycan array binding signal (z-score),[16],-0.386
same,glycan array binding signal (z-score),[17],0.116
same,glycan array binding signal (z-score),Gal(b1-3)GlcNAc(b1-2)Man,0.664
same,glycan array binding signal (z-score),[18],0.708
same,glycan array binding signal (z-score),[19],-0.618
same,glycan array binding signal (z-score),[20],0.388
same,glycan array binding signal (z-score),[21],1.28
same,glycan array binding signal (z-score),[22],-0.418
same,glycan array binding signal (z-score),[23],-0.316
same,glycan array binding signal (z-score),[24],-0.526
same,glycan array binding signal (z-score),[25],0.669
same,glycan array binding signal (z-score),[26],1.84
same,glycan array binding signal (z-score),[27],0.703
same,glycan array binding signal (z-score),[28],1.7
same,glycan array binding signal (z-score),[29],0.291
same,glycan array binding signal (z-score),[30],-1.08
same,glycan array binding signal (z-score),[31],-0.215
same,glycan array binding signal (z-score),[32],-0.616

# An excerpt of these results, tab-delimited:
binder	measurement	setting	value
B1	glycan array binding signal (z-score)	[25]	0.669
same	glycan array binding signal (z-score)	[26]	1.84
same	glycan array binding signal (z-score)	[27]	0.703
same	glycan array binding signal (z-score)	[28]	1.7
same	glycan array binding signal (z-score)	[29]	0.291
same	glycan array binding signal (z-score)	[30]	-1.08
same	glycan array binding signal (z-score)	[31]	-0.215
same	glycan array binding signal (z-score)	[32]	-0.616
